# Source: publication PMC8965321
# B1: topoisomerase I of Lactococcus lactis IL1403 (enzyme, UniProt Q9CG80 1-710)
# chain: MPTSTKSKTKTTTKKKTTRKRVTPGKNLVIVESPAKAKTIEKYLGRNYKVVASVGHIRDLKKSTMSVDIENDYEPQYINIRGKAPLINSLKKEAKAAKAVYLASDPDREGEAISWHLAHILNLPLEEKNRVVFNEITKDAVKNAFKEPRQIDVDLVDAQQARRVLDRLVGYSISPILWKKVKKGLSAGRVQSIALKLIVDRENEINAFIPEEYWSIDGEFKKGTKKFKASFWGIDGKKHPLKTNEDVIKVMERLDGPDFNVDKVEKKERRRNAPLPYTTSSMQQDAANKLNFRTRKTMMVAQQLYEGLTLGSQGHQGLITYMRTDSTRISPVAQSAAHNYIADQFGEKYSKHGSKVKNASGAQDAHEAIRPSNVFNTPDAIAKYLDKDQLKLYTLIWNRFVASQMVAAIFDTVKVNLSQNGVIFIANGSQVKFDGYLRIYNDSDKSNMLPEMEENETVKKANVKPEQHFTQPPARYSEATLIKTLEENGVGRPSTYAPTLETIQKRYYVRLSAKRFEPTELGEIVNKLIVEFFPNIVNTEFTAEMEKDLDEVEEGKRQWIEVVDQFYKPFAKELENAEEGMEKIQIKDEPAGFDCDVCGSPMVIKLGRFGKFYACSNFPDCRNTKAIVKEIGVKCPLCHEGNIIERKTKKNRIFYGCDRYPDCEFTSWDKPIGRDCPKSGHFLVEKKVRGGGKQVVCSNDECDYQEEKQK
# B2: single-strand binding protein (SSB) of Lactococcus lactis IL1403 (protein, UniProt Q9CDM9 1-166)
# chain: MINNVVLVGRITRDPELRYTPQNQAVATFSLAVNRQFKNANGEREADFINCVIWRQQAENLANWAKKGALIGVTGRIQTRNYENQQGQRVYVTEVVADSFQMLESRSAREGMGGGTSAGSYSAPSQSTNNTPRPQTNNNNATPNFGRDADPFGSSPMEISDDDLPF
# B3: DnaJ of Lactococcus lactis IL1403 (protein, UniProt P35514 1-379)
# chain: MNNTEYYERLGVDKNASQDEIKKAYRKMSKKYHPDLNKEEGAEEKYKEVQEAYETLSDEQKRAAYDQYGEAGANGGFGGGGFGGASGFSGFGGGSGGFGGFEDIFSSFFGGGGAQVNPNAPRQGDDLQYRINLKFEEAIFGVEKQVKYNREELCHTCGGSGAKAGTHPETCHKCGGRGQINVVRDTPLGRMQTQVTCDVCNGTGKEIKEKCETCHGSGHEKVAHTVKVTVPAGVETGQKMRLQGQGDAGVNGGPYGDLYVVFQVEASDKFERDGAEIYYKMPMDFVQAALGDEIEVPTVHGNVKLKIPAGTQTGANFRLKGKGAPKLRGSGNGDQYVIINIVTPKNLNQAQKEALQAFAKASGVEVSGSGKKGFFDKFK
# Biological target: GP46F13-His tagged protein immobilised on Ni-NTA agarose (bait) (Lactococcus lactis phage vB_Llc_bIBBF13 (F13))
# Assay: affinity purification with mass spectrometry; GP46F13-His tagged protein immobilised on Ni-NTA agarose; crude lysates of L. lactis IL1403 at 0, 5, 10, 15 min after infection with phage F13 added, overnight at 4°C; washed with 100 volumes of 50 mM Tris-HCl pH 8, 500 mM NaCl, 20 mM imidazole; resin-bound proteins analysed by LC-MS; hits normalized against control resin without tagged GP46F13; only the target purified
row,Binder,binding
1,B1,binds
2,B2,binds
3,B3,binds

# No constants are given. Whether binding was seen depends on the method and setting. In cells and extracts the contact can be indirect. Here binding means that the protein was enriched with, or labelled near, the bait; the list need not be complete.
